{"source": "the supplement of paper PMC4635364", "note": "Where a name gives a salt, the structure may show the parent alone. This is one part of the list. This data set is noisy: repeats of one test often differ as much as different tests do.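 Cells: ReNCell VM human fetal ventral-midbrain neural progenitors, differentiated mitogen-free. Blinded raters compared doublecortin-stained (early neurons) or tyrosine hydroxylase-stained (dopaminergic neurons) images with untreated wells, where 0 means no change. After repeats and both raters were averaged, compounds scoring 2 or above became hits for retesting.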", "data": [{"system": "ReNCell VM", "test": "neuronal differentiation score (DCX+ cell fraction vs untreated, manual image score) (score (-3 to 3)); higher = more neuronal differentiation", "conditions": "library: Tocriscreen; 2 uM; 2 weeks", "values": [{"smiles": "S=C=Nc1cccc(C2(N3CCCCC3)CCCCC2)c1", "note": "[Metaphit]", "neuronal differentiation score": "inactive: 0"}, {"smiles": "C[C@H]1CCC/C=C/[C@@H]2C[C@H](O)C[C@H]2[C@H](O)/C=C/C(=O)O1", "note": "[Brefeldin A]", "neuronal differentiation score": "inactive: 0"}, {"smiles": "C[C@@]12N[C@@H](Cc3ccccc31)c1ccccc12", "note": "[(-)-MK 801 maleate]", "neuronal differentiation score": "inactive: 0"}, {"smiles": "Cc1cccc(C(C)c2c[nH]cn2)c1C", "note": "(centres undefined) [Medetomidine hydrochloride]", "neuronal differentiation score": "inactive: 0"}]}, {"system": "ReNCell VM", "test": "dopaminergic neuron differentiation score (TH+ cell fraction vs untreated, manual image score) (score (0 to 3)); higher = more TH+ dopaminergic neuron differentiation", "conditions": "library: LOPAC; 2 uM; 4 weeks; BDNF 10 ng/ml + GDNF 10 ng/ml", "values": [{"smiles": "CCCN1CCC[C@@H]2Cc3nc(N)ncc3C[C@H]21", "note": "[Quinelorane dihydrochloride]", "dopaminergic neuron differentiation score": "inactive: 0"}, {"smiles": "Cc1[nH]c2ccc(O)cc2c1CCN", "note": "[2-Methyl-5-hydroxytryptamine maleate]", "dopaminergic neuron differentiation score": "inactive: 0"}, {"smiles": "CCCN1CCc2cccc3c2[C@H]1Cc1ccc(O)c(O)c1-3", "note": "[R(-)-Propylnorapomorphine hydrochloride]", "dopaminergic neuron differentiation score": "inactive: 0"}, {"smiles": "C[N+](C)(C)CCCCCCCCCC[N+](C)(C)C", "note": "[Decamethonium dibromide]", "dopaminergic neuron differentiation score": "inactive: 0"}, {"smiles": "CN1CC[C@]2(CCN3CCc4c(oc5ccccc45)[C@@H]3C2)N(C)C1=O", "dopaminergic neuron differentiation score": "active: 3"}, {"smiles": "CN1CCc2cccc(Cl)c2CC1", "dopaminergic neuron differentiation score": "inactive: 0"}, {"smiles": "C=CCN1CCc2cccc3c2[C@H]1Cc1ccc(O)c(O)c1-3", "note": "[R(-)-N-Allylnorapomorphine hydrobromide]", "dopaminergic neuron differentiation score": "inactive: 0"}, {"smiles": "N#C/C(=C\\c1ccc(O)c(O)c1)C(N)=S", "note": "[Tyrphostin 47]", "dopaminergic neuron differentiation score": "inactive: 0"}, {"smiles": "N[C@@H](Cn1ccc(=O)[nH]c1=O)C(=O)O", "note": "[S(-)-Willardiine]", "dopaminergic neuron differentiation score": "inactive: 0"}, {"smiles": "NC(=O)c1cc(N2CC2)c([N+](=O)[O-])cc1[N+](=O)[O-]", "dopaminergic neuron differentiation score": "inactive: 0"}]}, {"system": "ReNCell VM", "test": "dopaminergic neuron differentiation score (TH+ cell fraction vs untreated, manual image score) (score (0 to 3)); higher = more TH+ dopaminergic neuron differentiation", "conditions": "library: Natural; 2 uM; 4 weeks; BDNF 10 ng/ml + GDNF 10 ng/ml", "values": [{"smiles": "CC(=O)O[C@@H]1C[C@@]2(C)[C@H](c3ccoc3)C[C@H]3O[C@]32[C@]2(C)C(=O)C(O)=C3C(C)(C)C(=O)C=C[C@]3(C)[C@@H]12", "note": "[anthothecol]", "dopaminergic neuron differentiation score": "inactive: 0"}, {"smiles": "CC(C)=CCOc1c2occc2cc2ccc(=O)oc12", "note": "[imperatorin]", "dopaminergic neuron differentiation score": "inactive: 0"}, {"smiles": "CC(=O)OC[C@]12C[C@H](OC(=O)CC(C)C)C(C)=C[C@H]1O[C@@H]1[C@H](O)[C@@H](OC(C)=O)[C@@]2(C)[C@]12CO2", "note": "[t2 toxin]", "dopaminergic neuron differentiation score": "inactive: 0"}]}, {"system": "ReNCell VM", "test": "dopaminergic neuron differentiation score (TH+ cell fraction vs untreated, manual image score) (score (0 to 3)); higher = more TH+ dopaminergic neuron differentiation", "conditions": "library: Phytochemical; 2 uM; 4 weeks; BDNF 10 ng/ml + GDNF 10 ng/ml", "values": [{"smiles": "CN(C)Cc1c[nH]c2ccccc12", "note": "[Gramine]", "dopaminergic neuron differentiation score": "inactive: 0"}, {"smiles": "O=C1CCC[C@@H]2[C@H]3CCCN4CCC[C@@H](CN12)[C@@H]34", "note": "[Matrine]", "dopaminergic neuron differentiation score": "inactive: 0"}, {"smiles": "CC1=C2C(=O)[C@H]3[C@@H](CC=C4C[C@@H](O)CC[C@@]43C)[C@@H]2CC[C@]12O[C@@H]1C[C@H](C)CN[C@H]1[C@H]2C", "note": "[Jervine]", "dopaminergic neuron differentiation score": "inactive: 0"}]}, {"system": "ReNCell VM", "test": "dopaminergic neuron differentiation score (TH+ cell fraction vs untreated, manual image score) (score (0 to 3)); higher = more TH+ dopaminergic neuron differentiation", "conditions": "library: Prestwick; 2 uM; 4 weeks; BDNF 10 ng/ml + GDNF 10 ng/ml", "values": [{"smiles": "C#C[C@]1(O)CC[C@H]2[C@@H]3CCC4=CC(=O)CC[C@]4(C)[C@H]3CC[C@@]21C", "note": "[Ethisterone]", "dopaminergic neuron differentiation score": "inactive: 0"}, {"smiles": "Clc1ccc(C(OCCN2CCCCC2)c2ccccc2)cc1", "note": "(centres undefined) [Cloperastine hydrochloride]", "dopaminergic neuron differentiation score": "inactive: 0"}, {"smiles": "C[C@]12Cc3c[nH]nc3C[C@@H]1CC[C@@H]1[C@@H]2CC[C@@]2(C)[C@H]1CC[C@]2(C)O", "note": "[Stanozolol]", "dopaminergic neuron differentiation score": "inactive: 0"}, {"smiles": "CCCC(C)C1(CC)C(=O)NC(=O)NC1=O", "note": "(centres undefined) [Pentobarbital]", "dopaminergic neuron differentiation score": "inactive: 0"}, {"smiles": "NCC(CC(=O)O)c1ccc(Cl)cc1", "note": "(racemic) [Baclofen (R,S)]", "dopaminergic neuron differentiation score": "inactive: 0"}]}, {"system": "ReNCell VM", "test": "dopaminergic neuron differentiation score (TH+ cell fraction vs untreated, manual image score) (score (0 to 3)); higher = more TH+ dopaminergic neuron differentiation", "conditions": "library: Spectrum; 2 uM; 4 weeks; BDNF 10 ng/ml + GDNF 10 ng/ml", "values": [{"smiles": "O=C(N/N=C/c1ccc([N+](=O)[O-])o1)c1cc([N+](=O)[O-])cc([N+](=O)[O-])c1O", "dopaminergic neuron differentiation score": "inactive: 0"}, {"smiles": "CS(=N)(=O)CC[C@H](N)C(=O)O", "note": "(some centres undefined)", "dopaminergic neuron differentiation score": "inactive: 0"}, {"smiles": "COc1cc2c(cc1OC)-c1c(oc3c4c(ccc3c1=O)OC(C(C)C)C4)CO2", "note": "(centres undefined)", "dopaminergic neuron differentiation score": "inactive: 0"}, {"smiles": "C[N+]1(C)[C@@H]2CC[C@H]1C[C@@H](OC(=O)C(CO)c1ccccc1)C2", "note": "(some centres undefined)", "dopaminergic neuron differentiation score": "inactive: 0"}, {"smiles": "O=C1C[C@@H]2OCC=C3CN4CC[C@]56c7ccccc7N1[C@H]5[C@H]2[C@H]3C[C@H]46", "dopaminergic neuron differentiation score": "inactive: 1"}, {"smiles": "CC[C@@]1(O)C[C@H](O[C@H]2C[C@H](N(C)C)[C@H](O)[C@H](C)O2)c2c(cc3c(c2O)C(=O)c2c(O)ccc(O)c2C3=O)[C@H]1C(=O)OC", "dopaminergic neuron differentiation score": "inactive: 0"}, {"smiles": "CC(Cc1ccc(O)cc1)NCC(O)c1cc(O)cc(O)c1", "note": "(centres undefined)", "dopaminergic neuron differentiation score": "inactive: 0"}, {"smiles": "CCn1cc(C(=O)O)c(=O)c2cc3c(cc21)OCO3", "dopaminergic neuron differentiation score": "inactive: 0"}, {"smiles": "COC[C@]12CN(C=O)[C@@H]3[C@@H]4[C@H](OC)[C@H]1[C@@]3([C@@H](OC)C[C@H]2O)[C@@H]1C[C@@]2(O)[C@H](OC(=O)c3ccccc3)[C@@H]1[C@]4(OC(C)=O)[C@@H](O)[C@@H]2OC", "dopaminergic neuron differentiation score": "inactive: 0"}, {"smiles": "CCC(C)(C)O", "dopaminergic neuron differentiation score": "inactive: 0"}, {"smiles": "C=C(C)[C@H]1Cc2c(ccc3c2O[C@@H]2COc4cc(OC)c(OC)cc4[C@@H]2C3=O)O1", "dopaminergic neuron differentiation score": "inactive: 0"}, {"smiles": "CC1(C)C(C=C(Cl)Cl)C1C(=O)OCc1cccc(Oc2ccccc2)c1", "note": "(centres undefined)", "dopaminergic neuron differentiation score": "inactive: 0"}, {"smiles": "CCCCc1ccc(C(=O)O)nc1", "dopaminergic neuron differentiation score": "inactive: 0"}, {"smiles": "C=CCN=C=S", "dopaminergic neuron differentiation score": "inactive: 0"}]}]}
